Source: the supplement of paper PMC3741180, “A Novel High Throughput Biochemical Assay to Evaluate the HuR Protein-RNA Complex Formation” (PLoS ONE, 2013)
This is one part of the list. Repeats in this data set agree poorly, so a single value says little.

Chains of the proteins cited; added tags and fusions are not shown.
UniProt Q15717, whole entry: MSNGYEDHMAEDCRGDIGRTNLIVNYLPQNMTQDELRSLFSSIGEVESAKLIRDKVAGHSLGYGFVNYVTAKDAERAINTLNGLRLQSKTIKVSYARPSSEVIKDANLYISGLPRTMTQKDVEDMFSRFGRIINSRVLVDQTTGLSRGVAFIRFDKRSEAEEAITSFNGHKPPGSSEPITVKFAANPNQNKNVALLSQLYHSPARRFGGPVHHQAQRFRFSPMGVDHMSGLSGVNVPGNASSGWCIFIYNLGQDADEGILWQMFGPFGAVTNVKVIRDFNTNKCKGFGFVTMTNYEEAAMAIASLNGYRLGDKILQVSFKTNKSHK

target: HuR (ELAVL1) - TNFalpha ARE RNA complex (UniProt Q15717); experiment: AlphaScreen HuR-RNA complex signal Z-score relative to positive (Bi-TNF, DMSO) controls (Z-score (SD units of positive control)); higher = more complex signal; settings: screen stage: primary screen; compound concentration: 25 nM

| SMILES | AlphaScreen HuR-RNA complex signal Z-score |
| --- | --- |
| Clc1ccc(CO/N=C(\Cn2ccnc2)c2ccc(Cl)cc2Cl)c(Cl)c1 | 2.78 |
| COc1cc2nc(N(C)CCCNC(=O)C3CCCO3)nc(N)c2cc1OC (stereo unspecified) | 1.27 |
| O=C(O)/C=C/c1ccc(O)c(O)c1 | 0.46 |
| CCCCCCCCCCCCCCCC(=O)OC[C@@H](NC(=O)C(Cl)Cl)[C@H](O)c1ccc([N+](=O)[O-])cc1 | -3.48 |
| Cc1cc(C(C)(C)C)c(O)c(C(C)(C)C)c1 | -5.19 |
| COc1ccc2c(c1)OCC(Cc1ccc(OC)c(O)c1)C2=O (stereo unspecified) | 2.11 |
| O=C(O)c1cn(C2CC2)c2cc(N3CCNCC3)c(F)cc2c1=O | -0.0316 |
| COc1ccc(/C=C/C(=O)c2ccc(O)cc2O)cc1 | 0.149 |
| CC(C)c1c(O)c(-c2cc3c(c(C(C)C)c2O)CCC2C(C)(C)CCC[C@]32C)cc2c1CCC1C(C)(C)CCC[C@]21C (stereo partly specified) | 1.48 |
| C1CCC(C(CC2CCCCN2)C2CCCCC2)CC1 (stereo unspecified) | 1.66 |
| CC(=O)[C@@]1(O)CC[C@H]2[C@@H]3C[C@H](C)C4=CC(=O)C=C[C@]4(C)[C@@]3(F)[C@@H](O)C[C@@]21C | 6.4 |
| CCc1nc(N)nc(N)c1-c1ccc(Cl)cc1 | -6.26 |
| COc1ccc2c(c1)OC/C(=C/c1ccc(OC)c(OC)c1)C2=O | 0.775 |
| O=C(O)C1CC([C@@H]2CCCCN2)CN2CCCCC12 (stereo partly specified) | 0.953 |
| COc1cc(C(=O)NCc2ccc(OCCN(C)C)cc2)cc(OC)c1OC | -0.578 |
| C[C@@H]1CC[C@H]2[C@](C)(CO)[C@@H](O)CC[C@]2(C)[C@@]12CC[C@@](CO)(CCO)O2 | 2.1 |
| Clc1ccc(C(Cn2ccnc2)OCc2ccsc2Cl)c(Cl)c1 (stereo unspecified) | 1.02 |
| C[C@](N)(Cc1ccc(O)c(O)c1)C(=O)O | 4.87 |
| C=CC(C1=CC(=O)C(OC)=CC1=O)c1ccccc1 (stereo unspecified) | 2.47 |
| C[C@H]1c2cccc(O)c2C(=O)C2=C(O)[C@]3(O)C(=O)C(C(N)=O)=C(O)[C@@H](N(C)C)[C@@H]3[C@@H](O)[C@@H]21 | -3 |
| COc1c(CC(=O)c2cc3c(cc2O)OC(C)(C)C(O)C3)ccc2c1C=CC(C)(C)O2 (stereo unspecified) | 1.4 |
| Cc1onc(-c2ccccc2Cl)c1C(=O)N[C@@H]1C(=O)N2[C@@H]1SC(C)(C)[C@@H]2C(=O)O | -3.18 |
| NS(=O)(=O)c1cc2c(cc1Cl)NC(C(Cl)Cl)NS2(=O)=O (stereo unspecified) | -3.09 |

| SMILES | AlphaScreen HuR-RNA complex signal Z-score |
| --- | --- |
| CN[C@@H]1[C@H](O)[C@H](NC)[C@H]2O[C@@]3(O)C(=O)C[C@@H](C)O[C@H]3O[C@@H]2[C@H]1O | 2.66 |
| CN[C@H](CC(=O)O)C(=O)O | 3.52 |
| CC(=O)Oc1cc(OC(C)=O)c2c(c1)O[C@H](c1ccc(OC(C)=O)c(OC(C)=O)c1)[C@@H](OC(C)=O)C2 | 1.56 |
| CC(C)CCC[C@@H](C)[C@H]1CC[C@H]2[C@@H]3CC(=O)[C@H]4C[C@@H](O)CC[C@]4(C)[C@H]3CC[C@]12C [5alpha-CHOLESTAN-3beta-OL-6-ONE] | 0.822 |
| NCCCC(=O)O [gamma-AMINOBUTYRIC ACID] | 0.593 |
| CCCCCCCCCCCCCCCCCCCCCCO | 1.93 |
| CC12CCC(CC1=O)C2(C)C (stereo unspecified) | 0.307 |
| CN[C@@H]1[C@@H](O[C@H]2O[C@H](CO)[C@@H](N)[C@H](O)[C@H]2O)OC2C[C@@H](N)[C@@H](O[C@H]3[C@H](O)[C@@H](O)[C@H](N)C[C@@H]3N)OC2[C@@H]1O (stereo partly specified) | 2.9 |
| C=C[C@@](C)(O)CCC1C(=C)CCC2[C@@](C)(CO)CCC[C@]12C (stereo partly specified) | 0.0438 |
| CC1(C)O[C@H]2CC(=O)OC[C@]23[C@H]2CC[C@@]4(C)[C@H](c5ccoc5)OC(=O)[C@H]5O[C@]54[C@]2(C)C(=O)C[C@@H]13 | 2.68 |
| C[n+]1c2cc(N)ccc2cc2ccc(N)cc21 | -0.96 |
| COc1ccc(-c2coc3cc(OC)ccc3c2=O)cc1 | 0.598 |
| O=C(N[C@H](CO)[C@H](O)c1ccc([N+](=O)[O-])cc1)C(Cl)Cl | -3.31 |
| O=C(O)CCNC(=O)c1ccccc1 | 1.74 |
| CCC[C@@H]1C[C@@H](C(=O)N[C@@H]([C@H]2O[C@H](SC)[C@H](O)[C@@H](O)[C@H]2O)[C@H](C)Cl)N(C)C1 | -2.25 |
| CCN(CC)CCNC(=O)c1cc(Cl)c(N)cc1OC | 3.08 |
| COc1ccc(-c2oc3cc(OC)c(OC)c(OC)c3c(=O)c2OC)cc1 | 0.503 |
| NCCCNCCCCNCCCN | -0.0901 |
| CC(C)(CO)C(O)C(=O)NCCCO (stereo unspecified) | 0.639 |
| CN(C)C/C=C(/c1ccc(Br)cc1)c1cccnc1 | 2.34 |
| CCOc1ccc2ccccc2c1C(=O)N[C@@H]1C(=O)N2[C@@H]1SC(C)(C)[C@@H]2C(=O)O | -3.15 |
| Cn1cnc2c1c(=O)[nH]c(=O)n2C | -0.311 |
| CC1=CC(=O)C(C(C)C)=CC1=O | 1.04 |

An excerpt of these results, as tab-separated lines.
SMILES	AlphaScreen HuR-RNA complex signal Z-score
CC(C)CCC[C@@H](C)[C@H]1CC[C@H]2[C@@H]3CC(=O)[C@H]4C[C@@H](O)CC[C@]4(C)[C@H]3CC[C@]12C [5alpha-CHOLESTAN-3beta-OL-6-ONE]	0.822
CN[C@@H]1[C@@H](O[C@H]2O[C@H](CO)[C@@H](N)[C@H](O)[C@H]2O)OC2C[C@@H](N)[C@@H](O[C@H]3[C@H](O)[C@@H](O)[C@H](N)C[C@@H]3N)OC2[C@@H]1O (stereo partly specified)	2.9
C[n+]1c2cc(N)ccc2cc2ccc(N)cc21	-0.96
CC1=CC(=O)C(C(C)C)=CC1=O	1.04
